Experimental data: PubChem BioAssay AID1259254 (NCATS, 2017)
In all, the deposit lists about 59,000 reagents; shown is an unselected part. Of all reagents, about 1,550 (2.6%) got an active call. 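G2 share is only a proxy for re-replication; each gene was hit by three separate siRNAs, and active genes were retested.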 A number with no mark means an inactive call. The numbers tell different reagents against one gene apart. Not all columns of the deposit are shown. Not given: the amount of reagent.

- Screen: 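Finding genes that stop cells copying their DNA twice in one cycle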 (primary screen)
- Cell system: human HCT116 colorectal cancer cells
- Reagent: single siRNA against human genes
- Timing: 3 days
- Detection: 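Imaged Hoechst DNA stain sorts each cell into a cycle phase by DNA amount; per plate, G2 fraction set to 0% for non-targeting and 100% for GMNN siRNA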
- Scale: G2 robust z-score and G2 cells, % of GMNN control: higher = more G2 cells, more excess DNA replication
- Rule for the call: 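An siRNA counts as active if its G2 robust z-score lies at least 5 MADs above the screen median; here such calls match roughly 38% of GMNN control or more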

gene	reagent no.	G2 robust z-score	G2 cells, % of GMNN control
ZNF615	1	-0.342	0.559
ZNF615	2	-0.609	-1.32
ZNF615	3	0.759	8.3
PRP4K	1	-1.03	-4.27
PRP4K	2	-0.684	-1.85
PRP4K	3	-1.15	-5.12
SFTPB	1	0.2	4.37
SFTPB	2	0.927	9.49
SFTPB	3	0.59	7.12
MGST1	1	-0.399	0.162
MGST1	2	-0.861	-3.09
MGST1	3	-0.183	1.68
CBFB	1	-0.107	2.22
CBFB	2	1.23	11.6
CBFB	3	-0.344	0.549
SFR1P2	1	0.15	4.02
SFR1P2	2	-0.233	1.33
SFR1P2	3	-0.508	-0.605
GLDC	1	-1.46	-7.3
GLDC	2	0.868	9.07
GLDC	3	0.206	4.42
MAPK10	1	-1.45	-7.27
MAPK10	2	-0.997	-4.05
MAPK10	3	-0.95	-3.72
HBS1L	1	-1.18	-5.33
HBS1L	2	0.000865	2.97
HBS1L	3	-1.26	-5.88
DDO	1	-0.71	-2.03
DDO	2	-0.547	-0.883
DDO	3	-0.789	-2.58
AFAP1	1	-0.425	-0.0231
AFAP1	2	-0.23	1.35
AFAP1	3	0.302	5.09
EPRS1	1	0.79	8.53
EPRS1	2	2.24	18.8
EPRS1	3	12 (active)	87.6
ARHGAP35	1	1.42	13
ARHGAP35	2	0.225	4.55
ARHGAP35	3	0.492	6.43
AMH	1	-0.575	-1.08
AMH	2	-0.144	1.96
AMH	3	4.95	37.8
NOTUM	1	0.0403	3.25
NOTUM	2	1.67	14.7
NOTUM	3	-0.12	2.13
HYLS1	1	-0.563	-0.993
HYLS1	2	-0.418	0.0295
HYLS1	3	0.324	5.25
IHO1	1	-0.36	0.438
IHO1	2	2.43	20.1
IHO1	3	0.855	8.99
DCX	1	-0.565	-1.01
DCX	2	0.627	7.38
DCX	3	0.611	7.27
ACTN1	1	0.00769	3.02
ACTN1	2	-0.307	0.81
ACTN1	3	0.971	9.8
DCLK3	1	0.568	6.96
DCLK3	2	-0.538	-0.817
DCLK3	3	1.55	13.9
CHI3L1	1	0.232	4.6
CHI3L1	2	1.16	11.1
CHI3L1	3	0.254	4.76
OR5M3	1	0.241	4.67
OR5M3	2	0.875	9.13
OR5M3	3	-0.24	1.28
HLA-DQA1	1	-1.04	-4.32
HLA-DQA1	2	0.288	5
HLA-DQA1	3	-0.801	-2.67
HLA-DQA1	4	0.97	9.79
HLA-DQA1	5	-0.384	0.268
HLA-DQA1	6	1.5	13.5

Reagents listed above with an active call (1):
gene	reagent no.	G2 robust z-score	G2 cells, % of GMNN control
EPRS1	3	12 (active)	87.6
